# Results from publication PMC10410195.
# For at least one entry, the source does not settle the construct or the ends of the probe. Negatives hold for the conditions tested. At least one verdict rests on a figure or table, not on a statement of the authors.
# System: PnMYB4 (Panax notoginseng)
# Test: EMSA
# Details: EMSA Kit (Beyotime), 4% native acrylamide gel; 100x and 500x unlabeled competitor; pH and temperature not stated; recombinant protein; protein details: His-tag (pET28a); label: biotin 3' end
row,Sequence,binding result
1,ACATAAATATAAAAAAATGTATGTGC / GCACATACATTTTTTTTATATTTATGT [PnSE-pro-probe-mutant 1],no binding
2,ACATAAATATTGGTTGATGTATGTGC (double strand) [PnSE-pro-probe 1],binds
3,AGTAATATGAGGGGGGTAAATAAATA (double strand) [PnSE-pro-probe-mutant 2],no binding
4,AGTAATATGATAACCATAAATAAATA (double strand) [PnSE-pro-probe 2],binds
5,ATTATTTTAACAACCAACTTATATTT (double strand) [PnSS-pro-probe 1],binds
6,ATTATTTTAATTTTTTACTTATATTT (double strand) [PnSS-pro-probe-mutant 1],no binding
7,GTACACCACAGGGGGGACAAGTAGTA (double strand) [PnDS-pro-probe-mutant 2 (also printed as mutant-F1/R1)],no binding
8,GTACACCACATAACCAACAAGTAGTA (double strand) [PnDS-pro-probe 2 (also printed as probe-F1/R1)],binds
9,TAGAACTAGGCCCCCCAACTAGAAAT (double strand) [PnDS-pro-probe-mutant 1],no binding
10,TAGAACTAGGTGGTTAAACTAGAAAT (double strand) [PnDS-pro-probe 1],binds
11,TTTCACATTCCAACTGCAAATTAAGC (double strand) [PnSS-pro-probe 2],binds
12,TTTCACATTCTTTTTTCAAATTAAGC (double strand) [PnSS-pro-probe-mutant 2],no binding
